Results are given in words; binding and its absence hold for the method and conditions named. For some assays here: In cells and extracts the contact can be indirect. Some entries that bind do so weakly or less than the wild type.

Experiment [1] deals with T1, Human native C-reactive protein (CRP) (human), P02741.
T1 chain: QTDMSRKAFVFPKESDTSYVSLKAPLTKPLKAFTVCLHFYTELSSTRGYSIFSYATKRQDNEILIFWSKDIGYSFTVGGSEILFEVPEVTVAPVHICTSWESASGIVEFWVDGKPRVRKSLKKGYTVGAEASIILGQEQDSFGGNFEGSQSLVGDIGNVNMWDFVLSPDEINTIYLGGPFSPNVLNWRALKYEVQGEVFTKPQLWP
Kind of experiment: SEC; Superdex G75; CRP 100 ug/ml in 8 M urea, 5 mM EDTA sampled at the indicated times; eluted with 8 M urea containing 2 mM Ca to stabilise the native pentameric state; both purified. As to conditions: remark: other sources report otherwise. (In general: Size exclusion chromatography separates by hydrodynamic size, large species first.)

Experiment [2] deals with CRP Y40C/V117C mutant (human) (UniProt P02741). Briefly: cross-linking; engineered inter-subunit disulfide bonds; conditioned media of COS-7 cells, immunoblotting with clone8 mAb, oligomer bands sensitive to reduction. A general note: A western blot detects proteins with antibodies after separation by electrophoresis.

B1: Human native C-reactive protein (CRP), P02741 19-224 (protein)
chain: QTDMSRKAFVFPKESDTSYVSLKAPLTKPLKAFTVCLHFYTELSSTRGYSIFSYATKRQDNEILIFWSKDIGYSFTVGGSEILFEVPEVTVAPVHICTSWESASGIVEFWVDGKPRVRKSLKKGYTVGAEASIILGQEQDSFGGNFEGSQSLVGDIGNVNMWDFVLSPDEINTIYLGGPFSPNVLNWRALKYEVQGEVFTKPQLWP
Take B1: the binding entry in experiment [1] is “binds”.

B2: CRP Y40C/V117C mutant (protein, UniProt P02741 19-224)
chain: QTDMSRKAFVFPKESDTSYVSLKAPLTKPLKAFTVCLHFCTELSSTRGYSIFSYATKRQDNEILIFWSKDIGYSFTVGGSEILFEVPEVTVAPVHICTSWESASGIVEFWVDGKPRCRKSLKKGYTVGAEASIILGQEQDSFGGNFEGSQSLVGDIGNVNMWDFVLSPDEINTIYLGGPFSPNVLNWRALKYEVQGEVFTKPQLWP
Turning to B2, in experiment [2], the binding result is “binds”.
